The text below walks through data of PubChem BioAssay AID493014 (National Center for Advancing Translational Sciences (NCATS), 2011).

Molecules are shown by their SMILES. Some of the results follow. The main result of the screen is listed elsewhere. These columns were measured beside it and carry no call. Most of these compounds were active or inconclusive in the main read-out, so they are no random draw. The note in brackets gives the kind of curve behind each potency; many fits are weak.

The assay in a line: qHTS Assay to Find Inhibitors of Chronic Active B-Cell Receptor Signaling. To be noted: ABC-DLBCL IkBa-CBG/CBR reporter, luminescence ratio (green luciferase fused to IkBa over red control in TMD8 lymphoma cells), 4 h. The essentials: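 Cell line TMD8 (human ABC DLBCL), stably expressing tet-inducible CBG68-IkBa fusion and CBR; IMDM/0.5% FBS; cpd up to 46 uM; dox induction, 4 h, 37C/5% CO2; dual luminescence; green/red ratio; MG132 control.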
(In qHTS, concentration-response curves come from the screen itself.)

Where [1] appears, read: measured here: CBR red luminescence, cell number.
Where [2] appears, read: measured here: IkBa-CBG green luminescence.

Consider `O=C(NC1CCCCCCC1)c1c(O)c2ccccc2[nH]c1=O`, for which, under setting [1], the AC50 was 0.411 µM [rising, full curve, poor fit]. As for `O=C(Cn1ncc(Cl)c(Cl)c1=O)N1CCN(S(=O)(=O)c2ccc3ccccc3c2)CC1`, the AC50 runs as follows: under setting [1], 6.51 µM [falling, full curve, poor fit]; under setting [2], 9.2 µM [rising, partial curve, poor fit]. For `O=C(Nc1ccccc1C(=O)N1CCCC1)c1ccc(Cl)c([N+](=O)[O-])c1`, the AC50 under setting [1] was 20 µM [falling, partial curve]. As for `O=C(/C=C/c1ccc(S(=O)(=O)N2CCOCC2)cc1)NC(=S)NCCCn1ccnc1`, the AC50 under setting [1] is 35.5 µM [falling, single point]. Turning to `CNC(=O)c1[nH]cnc1C(=O)Nc1ccccc1OC`, under setting [1], the AC50 was 0.13 µM [falling, full curve]. In the case of `Nc1nc(SCC(=O)Nc2ccccc2)nc2nc3c(cc12)CCCC3`, the AC50 under setting [1] was 25.9 µM [falling, single point].

As to `C=CCNC(=S)N/N=C/c1ccccc1OCCOc1ccccc1`, the AC50 under setting [1] was 35.5 µM [rising, single point]. Consider `CSc1ccccc1NC(=O)c1ccc(N2CC3CC(C2)c2cccc(=O)n2C3)c(NC(=O)c2ccncc2)c1` (stereo not given), for which the AC50 under setting [1] was 0.631 µM [rising, full curve, poor fit]. Same read-out and setting: the figure for `COc1ccc(CCNC(=O)Nc2cccs2)c(OC)c1` is 17.8 µM [rising, single point]. Still for that read-out and setting: the figure for `O=C(N/N=C/c1ccccc1)c1[nH]ncc1Br` is 5.01 µM [falling, full curve].

As for `Cc1cc(=O)[nH]c(SCC2COC3(CCCCC3)O2)n1` (stereo not given), the AC50 under setting [1] is 29.1 µM [falling, single point]. On to `CC1CCN(S(=O)(=O)c2ccc(NC(=O)Cn3nnc(-c4ccccc4F)n3)cc2)CC1`, for which the AC50 under setting [1] was 35.5 µM [rising, single point]. On to `COc1cc(C2Nc3ccccc3C(=O)N2c2ccccc2)ccc1O` (stereo not given), for which the AC50 under setting [1] is 0.112 µM [falling, full curve, poor fit]. For `COc1ccc(CC(=O)NCc2ccc3c(c2)CCN3C(C)=O)cc1`, the AC50 under setting [1] is 10 µM [rising, partial curve, poor fit]. Turning to `Brc1ccc(OCc2nc(-c3ccccn3)n[nH]2)cc1`, the AC50 under setting [1] was 16.4 µM [falling, partial curve].

Turning to `C/C(CC(=O)Nc1ccc(C)c(Cl)c1)=N\NC(=O)c1ccncc1`, under setting [1], the AC50 was 35.5 µM [falling, single point]. On to `CSc1nnc(NC(=O)c2ccco2)s1`, for which the AC50 under setting [1] is 10 µM [falling, single point].

On to `CCCCCCNC(=O)CC(NS(=O)(=O)c1ccc(NC(C)=O)cc1)C(C)C` (stereo not given), for which, under setting [1], the AC50 is 12.6 µM [rising, partial curve, poor fit]. Take `CC(C)(C)OC(=O)[C@H]1[C@H](c2ccc([N+](=O)[O-])cc2)C2(C(=O)c3ccccc3C2=O)C2c3ccccc3C=NN21` (stereo not given in full): the AC50 under setting [1] was 5.8 µM [rising, full curve, poor fit]. As for `O=C1C=C(O)CC(c2ccc(Cl)c(Cl)c2)C1` (stereo not given), the AC50 under setting [1] was 18.4 µM [rising, partial curve, poor fit]. Consider `CC(=O)c1cccc(NC(=O)C(=O)c2cn(CC(=O)N3CCCCC3)c3ccccc23)c1`, for which the AC50 under setting [1] is 0.891 µM [falling, full curve].

In the case of `CC1(C)C(c2cccs2)=[N+]([O-])C2(CCCCC2=O)N1O` (stereo not given), the AC50 under setting [1] was 17.8 µM [falling, partial curve, poor fit]. As to `COc1ccc(-c2cc(-c3ccccc3)nc(Cl)n2)cc1OC`, the AC50 under setting [1] was 6.31 µM [falling, partial curve, poor fit].

Regarding `O=C(Nc1ccc(N2CCN(C(=O)c3ccc(Cl)cc3)CC2)cc1)c1ccc2c(c1)OCCO2`, the AC50 under setting [1] is 1.84 µM [falling, partial curve, poor fit]. In the case of `COc1ccc(/C=N/NC(=O)c2ccccc2O)cc1COc1ccccn1`, the AC50 under setting [1] is 7.94 µM [falling, partial curve, poor fit].

Regarding `O=C(NCc1ccco1)C1CC(=O)N(c2ccc(F)cc2)C1` (stereo not given), the AC50 under setting [1] is 5.17 µM [rising, full curve]. As to `Cc1cc(Nc2nc(Cl)c(Cl)cc2Cl)n(-c2ccccc2)n1`, under setting [1], the AC50 is 14.6 µM [rising, single point]. As for `COc1cc(/C=N/NC(=S)Nc2cccnc2)cc(OC)c1OC`, the AC50 is 12.6 µM [falling, partial curve] under setting [1] and 7.94 µM [falling, partial curve] under setting [2]. In the case of `NS(=O)(=O)c1cc(C(=O)NCC2CCCCC2)ccc1Cl`, under setting [1], the AC50 was 2.82 µM [rising, full curve, poor fit].

Regarding `O=C(CCn1c2c(c3ccccc31)CCCC2)NNC(=O)c1ccc([N+](=O)[O-])cc1`, under setting [1], the half-maximal activity concentration (AC50) is 20.6 µM [falling, single point]. Regarding `COc1ccc(C2C(C(=O)OCC(=O)NC(C)(C)C)CCC(=O)N2c2ccc(C)cc2)cc1OC` (stereo not given), under setting [1], the AC50 was 0.00461 µM [rising, full curve, poor fit]. `CC(=O)/C(C#N)=C1\NC(=O)C(Cc2ccc(C)c(Cl)c2)S1` (stereo not given): the AC50 under setting [1] was 8.91 µM [rising, partial curve, poor fit]. Take `COc1ccc(OCc2ccc(/C=N\NC(=O)c3sccc3C)o2)cc1`: the AC50 under setting [1] is 6.31 µM [falling, full curve]. As to `CC(=O)Nc1ccc(Oc2ncccn2)c(Cl)c1`, the AC50 under setting [1] was 2.06 µM [rising, partial curve, poor fit]. Still for that read-out and setting: the figure for `CC(=O)Oc1cccc(N2C(=O)c3cccc4c([N+](=O)[O-])ccc(c34)C2=O)c1` is 20 µM [rising, partial curve, poor fit]. For the compound `O=C1NC(=O)c2cc(NC(=O)C3CCCCC3)ccc21`, the AC50 under setting [1] was 16.4 µM [falling, single point].

Take `O=C1Nc2ccc(Cl)cc2/C1=C/C1CC=CCC1` (stereo not given): the AC50 was 29.1 µM [falling, single point] under setting [1] and 18.4 µM [falling, partial curve, poor fit] under setting [2]. For the compound `CCN1CCN(c2nc3sc4c(c3c3ncnn23)CC(C)CC4)CC1` (stereo not given), the AC50 under setting [1] is 35.5 µM [rising, single point].

`CC1(C)OC(c2ccccc2)=C/C(=C/C=C2C(=O)c3ccccc3C2=O)O1`: the AC50 under setting [1] was 15.8 µM [rising, partial curve]. As to `Cc1ccc(C(=O)O/N=C/c2c(C)nn(C)c2Cl)cc1`, the AC50 under setting [1] is 11.2 µM [rising, partial curve]. Regarding `O=c1[nH]c(CN2CCN(c3ccccc3O)CC2)nc2scc(-c3ccccc3Cl)c12`, the AC50 under setting [1] is 35.5 µM [falling, single point]. For `COc1ccccc1NNC(=O)c1cc(C(C)(C)C)nn1Cc1ccccc1`, under setting [1], the AC50 was 0.708 µM [falling, full curve, poor fit].

On to `Cc1cc(C)n(-c2nc(-c3ccc(Cl)c(Cl)c3)cs2)n1`, for which the half-maximal activity concentration (AC50) under setting [1] was 4.47 µM [rising, partial curve, poor fit]. As to `CCCCOc1ccccc1-c1ccccc1CN1[C@@H](C(C)C)COCCS1(=O)=O`, the AC50 under setting [1] was 16.4 µM [falling, partial curve]. Take `Cc1occc1C(=O)N/N=C/c1ccc(Br)s1`: the AC50 under setting [1] is 10 µM [falling, partial curve].

As to `CN(c1ccccc1)c1nc(N)c([N+](=O)[O-])c(N2CCCCCC2)n1`, the AC50 under setting [1] is 35.5 µM [rising, single point]. As for `O=S(=O)(Cc1ccccc1)N1CCc2ccccc2C1`, the AC50 under setting [1] is 4.47 µM [rising, partial curve, poor fit]. As for `O=c1ccnc(SCc2ccccc2Cl)[nH]1`, the AC50 under setting [1] is 10.3 µM [rising, partial curve, poor fit].

As to `COc1ccc(/C=N/N2CCOCC2)cc1Cn1nc(C)c([N+](=O)[O-])c1C`, the concentration at half-maximal activity (AC50) under setting [1] was 7.08 µM [rising, full curve, poor fit].

Consider `O=C(Cn1c(=O)n(Cc2ccco2)c(=O)c2c3c(sc21)CCCC3)Nc1ccccc1`, for which, under setting [1], the AC50 was 1.16 µM [falling, full curve, poor fit]. On the same count and under the same terms, the figure for `CN(c1ccccc1)c1nc(N)c([N+](=O)[O-])c(NCc2ccccc2)n1` is 3.16 µM [rising, full curve]; for `O=c1c(-c2ccc(O)cc2)coc2c(C3O[C@H](CO)[C@@H](O)[C@H](O)[C@H]3O)c(O)ccc12` (stereo not given in full) it is 0.631 µM [rising, full curve, poor fit].

As to `Oc1ccc(-c2csc(Nc3ncccn3)n2)c(O)c1`, the AC50 under setting [1] was 14.1 µM [falling, single point].

On to `Cc1ccc(NC(=O)C2C3C=CC4(CN(Cc5cccnc5)C(=O)C24)O3)cc1` (stereo not given), for which, under setting [1], the AC50 was 6.51 µM [rising, full curve].

`O=C(NCc1ccncc1)Nc1cccc([N+](=O)[O-])c1`: the AC50 under setting [1] is 14.1 µM [rising, single point]. Consider `CC(C)CC1Nc2ncnc(N3CCCCC3)c2N(Cc2ccccc2)C1=O` (stereo not given), for which, under setting [1], the AC50 was 20.6 µM [falling, single point]. With `CN1C(=S)SC(/[N+]([O-])=C/c2ccc(Cl)cc2)C1(C)C` (stereo not given), the AC50 under setting [1] was 12.6 µM [rising, partial curve, poor fit]. Turning to `O=c1c2cc(NC(=S)NC3CCCC3)ccc2nc2n1CCCCC2`, the AC50 under setting [1] was 12.6 µM [falling, single point]. For `Cc1cc2nc(/N=C(\N)NC(=O)C(C)C)nc(C)c2cc1C`, under setting [1], the AC50 is 1.12 µM [rising, partial curve, poor fit]. As for `CC(C(=O)Nc1ccc(F)cc1Cl)N1CCN(S(=O)(=O)c2cccs2)CC1` (stereo not given), the AC50 under setting [1] was 0.00461 µM [rising, full curve, poor fit]. With `C/C(=N\NC(=O)c1cccnc1)c1ccc(Br)cc1`, under setting [1], the AC50 was 10 µM [falling, partial curve, poor fit]. On to `O=C1Nc2ccccc2C(O)(C(=O)NCc2ccc3c(c2)OCO3)N1c1ccc(Cl)c(Cl)c1` (stereo not given), for which, under setting [1], the AC50 is 5.62 µM [falling, full curve].

The term AC50 denotes the concentration at which the activity in the assay is half-maximal.
